# From PubChem BioAssay (NCATS)
# The shares of active, inactive and inconclusive entries below differ from those in the screen. Where the call is inconclusive, the potency comes from a doubtful curve fit. Active and inactive are the calls of the source. Calls come from the whole dose curve; as a rule, active = well fitted curve in the direction sought with a large enough effect; inconclusive = small, poorly fitted or top-dose-only effect, or another doubt; inactive = no such curve, though single readings can be large; an effect the other way counts as inactive or inconclusive.
# Tests used:
# [1] = Quantitative High-Throughput drug screen in 47 multiple myeloma cell lines against the NCATS MIPE library collection: KMS20_JCRB cell viability assay (AID 1918973); conditions: CellTiter-Glo ATP, 48 h; viability (% of DMSO): at 45.8 µM (top of the series); note: nearly all actives have a fitted effect of over 45% in size
# Procedure, shortened: (§1)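 Myeloma cells (500 per well) were exposed to MIPE 4.0 compounds by pin transfer and incubated 48 hours at 37C, 5% CO2. Viability was read as ATP by CellTiter-Glo luminescence, normalised to DMSO (100%) and media-only (0%) wells.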
# [2] = Quantitative High-Throughput drug screen in 47 multiple myeloma cell lines against the NCATS MIPE library collection: KMS21BM_JCRB cell viability assay (AID 1918974); conditions: ATP luminescence, 48 h; viability: at 45.8 µM (top of the series) unless noted
# Procedure, shortened: as §1
# [3] = Quantitative High-Throughput drug screen in 47 multiple myeloma cell lines against the NCATS MIPE library collection: KMS26_JCRB cell viability assay (AID 1918975); conditions: KMS26 myeloma cells viability, CellTiter-Glo ATP, 48 h; viability (% of DMSO): at 45.8 µM (top of the series); note: nearly all actives have a fitted effect of over 45% in size
# Procedure, shortened: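 Myeloma cell lines, 500 cells per well, exposed to MIPE 4.0 library compounds for 48 h at 37C, 5% CO2. Viability from ATP by CellTiter-Glo luminescence; normalised to DMSO (100%) and media-only (0%) wells.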
# [4] = Quantitative High-Throughput drug screen in 47 multiple myeloma cell lines against the NCATS MIPE library collection: MMM1_PLB cell viability assay (AID 1918976); note: nearly all actives have a fitted effect of over 35% in size
# Procedure, shortened: (§2)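 MIPE 4.0 approved/investigational drugs; 500 cells/well; 48 h 37 °C humidified 5% CO2; CTG luminescence readout; DMSO = 100%, media = 0% viability.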
# [5] = Quantitative High-Throughput drug screen in 47 multiple myeloma cell lines against the NCATS MIPE library collection: MOLP8_DSMZ cell viability assay (AID 1918977); conditions: MOLP8 myeloma viability, CellTiter-Glo ATP luminescence, 48 h; viability (% of control): at 45.8 µM (top of the series); note: nearly all actives have a fitted effect of over 45% in size
# Procedure, shortened: as §2
# [6] = Quantitative High-Throughput drug screen in 47 multiple myeloma cell lines against the NCATS MIPE library collection: NCIH929_DSMZ cell viability assay (AID 1918978); note: nearly all actives have a fitted effect of over 35% in size
# Procedure, shortened: as §2
# [7] = Quantitative High-Throughput drug screen in 47 multiple myeloma cell lines against the NCATS MIPE library collection: OCIMY1_PLB cell viability assay (AID 1918979); conditions: OCI-MY1 myeloma viability, CellTiter-Glo ATP, 48 h; viability: at 45.8 µM (top of the series) unless noted; note: nearly all actives have a fitted effect of over 35% in size
# Procedure, shortened: as §2
# [8] = Quantitative High-Throughput drug screen in 47 multiple myeloma cell lines against the NCATS MIPE library collection: MM1S_ATCC cell viability assay (AID 1918980); note: nearly all actives have a fitted effect of over 45% in size
# Procedure, shortened: as §2
# [9] = Quantitative High-Throughput drug screen in 47 multiple myeloma cell lines against the NCATS MIPE library collection: LP1_DSMZ cell viability assay (AID 1918982); conditions: LP1 myeloma viability, CellTiter-Glo ATP luminescence, 48 h; viability (% of control): at 45.8 µM (top of the series); note: nearly all actives have a fitted effect of over 35% in size
# Procedure, shortened: as §2
# [10] = Quantitative High-Throughput drug screen in 47 multiple myeloma cell lines against the NCATS MIPE library collection: L363_DSMZ cell viability assay (AID 1918984); conditions: L363 myeloma viability, CellTiter-Glo ATP luminescence, 48 h; viability (% of control): at 45.8 µM (top of the series); note: nearly all actives have a fitted effect of over 40% in size
# Procedure, shortened: as §2
# [11] = Quantitative High-Throughput drug screen in 47 multiple myeloma cell lines against the NCATS MIPE library collection: OCIMY7_PLB cell viability assay (AID 1918987); conditions: OCI-MY7 myeloma viability, CellTiter-Glo ATP, 48 h; viability (% of DMSO): at 45.8 µM (top of the series); note: nearly all actives have a fitted effect of over 65% in size
# Procedure, shortened: as §2
# [12] = Quantitative High-Throughput drug screen in 47 multiple myeloma cell lines against the NCATS MIPE library collection: OCIMY5_PLB cell viability assay (AID 1918988); conditions: OCI-MY5 myeloma viability, ATP luminescence, 48 h; viability, % of control: at 45.8 µM (top of the series); note: nearly all actives have a fitted effect of over 65% in size
# Procedure, shortened: as §2
# [13] = Quantitative High-Throughput drug screen in 47 multiple myeloma cell lines against the NCATS MIPE library collection: OPM1_PLB cell viability assay (AID 1918989); note: nearly all actives have a fitted effect of over 40% in size
# Procedure, shortened: as §2
# [14] = Quantitative High-Throughput drug screen in 47 multiple myeloma cell lines against the NCATS MIPE library collection: SKMM1_PLB cell viability assay (AID 1919863); conditions: SKMM1 myeloma viability, CellTiter-Glo ATP, 48 h; viability: active compounds read low; note: nearly all actives have a fitted effect of over 35% in size
# Procedure, shortened: as §2
# [15] = Quantitative High-Throughput drug screen in 47 multiple myeloma cell lines against the NCATS MIPE library collection: U266_ATCC cell viability assay (AID 1919864); conditions: U266 myeloma viability, CellTiter-Glo ATP luminescence, 48 h; viability (% of DMSO control): at 45.8 µM (top of the series); note: nearly all actives have a fitted effect of over 35% in size
# Procedure, shortened: as §2
# [16] = Quantitative High-Throughput drug screen in 47 multiple myeloma cell lines against the NCATS MIPE library collection: KMS28PE_JCRB cell viability assay (AID 1918983); note: nearly all actives have a fitted effect of over 35% in size
# Procedure, shortened: as §2
# [17] = Quantitative High-Throughput drug screen in 47 multiple myeloma cell lines against the NCATS MIPE library collection: KMS34_JCRB cell viability assay (AID 1918985); conditions: KMS34 myeloma viability, CellTiter-Glo ATP luminescence, 48 h; viability, percent of control: at 45.8 µM (top of the series); note: nearly all actives have a fitted effect of over 40% in size
# Procedure, shortened: as §2
# [18] = Quantitative High-Throughput drug screen in 47 multiple myeloma cell lines against the NCATS MIPE library collection: XG6_PLB cell viability assay (AID 1919865); conditions: XG6 myeloma viability, CellTiter-Glo ATP luminescence, 48 h; viability (% of control): at 45.8 µM (top of the series); note: nearly all actives have a fitted effect of over 40% in size
# Procedure, shortened: as §2
# [19] = Quantitative High-Throughput drug screen in 47 multiple myeloma cell lines against the NCATS MIPE library collection: XG1_PLB cell viability assay (AID 1919866); conditions: CellTiter-Glo ATP, 48 h; viability: at 45.8 µM (top of the series); note: nearly all actives have a fitted effect of over 35% in size
# Procedure, shortened: as §2
# [20] = Quantitative High-Throughput drug screen in 47 multiple myeloma cell lines against the NCATS MIPE library collection: MM1R_ATCC cell viability assay (AID 1918981); note: nearly all actives have a fitted effect of over 35% in size
# Procedure, shortened: as §2
# Potency is the fitted concentration of half-maximal effect.
compound,measurement,setting,value
COc1ccc2c(OCc3nnc4ccc(-c5ccccc5)nn34)ccnc2c1,Potency,[1],"inconclusive: 37.2 µM [cytotoxic, partial curve, poor fit]"
same,Potency,[2],"inconclusive: 37.2 µM [cytotoxic, partial curve, poor fit]"
same,Potency,[3],"inconclusive: 0.0118 µM [rising, full curve, poor fit]"
same,Potency,[4],inactive
same,Potency,[5],"inconclusive: 0.0526 µM [rising, full curve, poor fit]"
same,Potency,[6],inactive
same,Potency,[7],inactive
same,Potency,[8],inactive
same,Potency,[9],inactive
same,Potency,[10],inconclusive: 0.001 µM
same,Potency,[11],"inconclusive: 0.187 µM [cytotoxic, full curve, poor fit]"
same,Potency,[12],inconclusive: 0.001 µM [cytotoxic]
same,Potency,[13],"inconclusive: 5.9 µM [cytotoxic, partial curve, poor fit]"
same,Potency,[14],"inconclusive: 0.935 µM [cytotoxic, full curve, poor fit]"
same,Potency,[15],inactive
CCC(C)(C)c1ccc(CC(C)CN2C[C@@H](C)O[C@@H](C)C2)cc1 (stereo partly specified),Potency,[1],"inconclusive: 18.7 µM [cytotoxic, partial curve, poor fit]"
same,Potency,[2],"inconclusive: 0.0033 µM [rising, full curve, poor fit]"
same,Potency,[3],"inconclusive: 37.2 µM [cytotoxic, single point]"
same,Potency,[4],"inconclusive: 29.6 µM [cytotoxic, single point]"
same,Potency,[5],"inconclusive: 33.2 µM [cytotoxic, single point]"
same,Potency,[6],inactive
same,Potency,[7],"inconclusive: 37.2 µM [cytotoxic, single point]"
same,Potency,[8],"inconclusive: 33.2 µM [cytotoxic, partial curve, poor fit]"
same,Potency,[9],"inconclusive: 33.2 µM [cytotoxic, single point]"
same,Potency,[16],"inconclusive: 26.4 µM [cytotoxic, single point]"
same,Potency,[10],"inconclusive: 0.003 µM [rising, full curve, poor fit]"
same,Potency,[17],"inconclusive: 0.0019 µM [rising, full curve]"
same,Potency,[11],"inconclusive: 10.5 µM [cytotoxic, partial curve]"
same,Potency,[12],"inconclusive: 13.2 µM [rising, partial curve, poor fit]"
same,Potency,[13],"inconclusive: 18.7 µM [cytotoxic, partial curve]"
same,Potency,[14],"inconclusive: 33.2 µM [cytotoxic, single point]"
same,Potency,[15],"inconclusive: 33.2 µM [cytotoxic, single point]"
same,Potency,[18],"inconclusive: 20.9 µM [cytotoxic, partial curve]"
same,Potency,[19],"inconclusive: 20.9 µM [cytotoxic, partial curve]"
COc1c(C)c2c(c(O)c1CC=C(C)CCC(=O)OCCN1CCOCC1)C(=O)OC2,Potency,[1],inactive
same,Potency,[2],"inconclusive: 0.0105 µM [cytotoxic, full curve, poor fit]"
same,Potency,[3],inactive
same,Potency,[4],"inconclusive: 6.62 µM [cytotoxic, full curve, poor fit]"
same,Potency,[5],active: 2.96 µM
same,Potency,[6],"inconclusive: 5.26 µM [cytotoxic, full curve]"
same,Potency,[7],active: 10.5 µM
same,Potency,[10],"inconclusive: 8.33 µM [cytotoxic, partial curve, poor fit]"
same,Potency,[14],active: 4.18 µM
same,Potency,[18],"inconclusive: 3.72 µM [cytotoxic, full curve, poor fit]"
same,Potency,[19],"inconclusive: 1.87 µM [cytotoxic, full curve]"
CCCS(=O)(=O)Nc1ccc(F)c(C(=O)c2c[nH]c3ncc(Cl)cc23)c1F,Potency,[1],"inconclusive: 20.9 µM [cytotoxic, partial curve, poor fit]"
same,Potency,[2],"inconclusive: 29.6 µM [cytotoxic, partial curve, poor fit]"
same,Potency,[3],inactive
same,Potency,[4],"inconclusive: 14.8 µM [cytotoxic, partial curve, poor fit]"
same,Potency,[5],"inconclusive: 20.9 µM [cytotoxic, partial curve, poor fit]"
same,Potency,[6],"inconclusive: 29.6 µM [cytotoxic, single point]"
same,Potency,[7],inactive
same,Potency,[8],inactive
same,Potency,[20],"inconclusive: 0.264 µM [rising, full curve]"
same,Potency,[9],inactive
same,Potency,[16],"inconclusive: 13.2 µM [cytotoxic, partial curve, poor fit]"
same,Potency,[10],"inconclusive: 20.9 µM [cytotoxic, partial curve]"
same,Potency,[11],active: 1.32 µM
same,viability,[14],inactive: 122%
same,Potency,[19],active: 18.7 µM
CCOc1ccn(-c2ccc(F)cc2)c(=O)c1C(=O)Nc1ccc(Oc2ccnc(N)c2Cl)c(F)c1,Potency,[1],"inconclusive: 0.105 µM [rising, full curve, poor fit]"
same,Potency,[2],"inconclusive: 0.0019 µM [cytotoxic, full curve, poor fit]"
same,Potency,[3],inactive
same,Potency,[4],"inconclusive: 20.9 µM [cytotoxic, partial curve, poor fit]"
same,Potency,[5],"inconclusive: 0.0662 µM [cytotoxic, full curve, poor fit]"
same,Potency,[6],"inconclusive: 37.2 µM [cytotoxic, single point]"
same,Potency,[20],"inconclusive: 23.5 µM [cytotoxic, single point]"
same,Potency,[9],"inconclusive: 23.5 µM [cytotoxic, single point]"
same,Potency,[16],"inconclusive: 37.2 µM [cytotoxic, single point]"
same,Potency,[10],"inconclusive: 18.7 µM [cytotoxic, partial curve, poor fit]"
same,Potency,[17],"inconclusive: 4.18 µM [cytotoxic, full curve]"
same,Potency,[11],"inconclusive: 33.2 µM [cytotoxic, single point]"
same,Potency,[13],"inconclusive: 14.8 µM [cytotoxic, partial curve, poor fit]"
same,Potency,[14],"inconclusive: 1.87 µM [cytotoxic, partial curve, poor fit]"
same,Potency,[15],"inconclusive: 37.2 µM [cytotoxic, single point]"
same,Potency,[19],active: 3.32 µM

# Random excerpt: 4 records from the list, in no set order.
compound,measurement,setting,value
CCOc1ccn(-c2ccc(F)cc2)c(=O)c1C(=O)Nc1ccc(Oc2ccnc(N)c2Cl)c(F)c1,Potency,[6],"inconclusive: 37.2 µM [cytotoxic, single point]"
same,Potency,[9],"inconclusive: 23.5 µM [cytotoxic, single point]"
CCC(C)(C)c1ccc(CC(C)CN2C[C@@H](C)O[C@@H](C)C2)cc1 (stereo partly specified),Potency,[15],"inconclusive: 33.2 µM [cytotoxic, single point]"
CCCS(=O)(=O)Nc1ccc(F)c(C(=O)c2c[nH]c3ncc(Cl)cc23)c1F,Potency,[8],inactive
